Numbering of substitutions follows the chain as printed. These are yes or no findings as the source states them, for the method shown. Some binding calls cover weakened binding; strength is not graded here.
B1: 2H6 (designed binder)
chain: IEVKDVTDTTALITWATPSVFDSHIEGCELTYGIKDVPGDRTTIDLTEDENQYSIGNLKPDTEYEVSLICWKHHGDAWSKETFTT
B2: 2F4 (designed binder)
chain: IEVKDVTDTTALITWSPCIMVCLRTGCELTYGIKDVPGDRTTIDLTEDENQYSIGNLKPDTEYEVSLICRRGDMSGAPAKETFTT
B3: 5B10 (designed binder)
chain: B2 chain with I19L, M20F
B4: 7G11 (designed binder)
chain: IEVKDVTDTTALITWAKPSIVNGFISGCELTYGIKDVPGDRTTIDLTEDENQYSIGNLKPDTEYEVSLICDKCFGAMKSKETFTT
B5: 8B3 (designed binder)
chain: IEVKDVTDTTALITWSPPEYAFYYTGCELTYGIKDVPGDRTTIDLTEDENQYSIGNLKPDTEYEVSLICVKNCGLFSNPAKETFTT
B6: 6C7 (designed binder)
chain: IEVKDVTDTTALITWAKPMSCSGYIQGCELTYGIKDVPGDRTTIDLTEDENQYSIGNLKPDTEYEVSLICAKLTGWLCSKETFTT
B7: 10D9 (designed binder)
chain: IEVKDVTDTTALITWSPPLFCCQKTGCELTYGIKDVPGDRTTIDLTEDENQYSIGNLKPDTEYEVSLICFKLTGFLYSKETFTT
B8: 6F11 (designed binder)
chain: IEVKDVTDTTALITWSPSVARMLETGCELTYGIKDVPGDRTTIDLTEDENQYSIGNLKPDTEYEVSLICITLCGRGVSKETFTT
B9: 1C12-Cκ/1C12-IGHG1 (designed binder, not shown: a dimerising Fc or GST)
chain 1: IEVKDVTDTTALITWAKPEKWDGSIYGCELTYGIKDVPGDRTTIDLNSRHTAYSIGNLKPDTEYEVSLICFTPYGAKSNPAKETFTTGGGTPT
chain 2: B9 chain 1
B10: 1C12 (designed binder)
chain: IEVKDVTDTTALITWAKPEKWDGSIYGCELTYGIKDVPGDRTTIDLNSRHTAYSIGNLKPDTEYEVSLICFTPYGAKSNPAKETFTT
B11: 2B04 (designed binder)
chain: IEVKDVTDTTALITWAPPMLTDSEINGCELTYGIKDVPGDRTTIDLTSSYWSYSIGNLKPDTEYEVSLICSTLRRNAISKETFTT
B12: 2D3 (designed binder)
chain: IEVKDVTDTTALITWSPGGFQKITTGCELTYGIKDVPGDRTTIDLVNRRNHYSIGNLKPDTEYEVSLICLTYKARAISKETFTT
B13: 1E03 (designed binder)
chain: IEVKDVTDTTALITWAAPFFGSSYISGCELTYGIKDVPGDRTTIDLHYYVTRYSIGNLKPDTEYEVSLICVNLSGHMPSKETFTT
B14: 1C06 (designed binder)
chain: IEVKDVTDTTALITWSPRMYTWIQTGCELTYGIKDVPGDRTTIDLTHLSGSYSIGNLKPDTEYEVSLICLKLTRTHISKETFTT
B15: 1C10 (designed binder)
chain: IEVKDVTDTTALITWSPCCPYDRYTGCELTYGIKDVPGDRTTIDLQSSRSHYSIGNLKPDTEYEVSLICITTFGHVSNPAKETFTT
B16: 1D8 (designed binder)
chain: IEVKDVTDTTALITWSPCQMLSSLTGCELTYGIKDVPGDRTTIDLNIERPKYSIGNLKPDTEYEVSLICFTMTGYRSNPAKETFTT
B17: 1B12 (designed binder)
chain: IEVKDVTDTTALITWAKPRQGGSNISGCELTYGIKDVPGDRTTIDLYHKGLHYSIGNLKPDTEYEVSLICPKMTGYTYSKETFTT
B18: 1A03 (designed binder)
chain: IEVKDVTDTTALITWAPPPFSNSCIIGCELTYGIKDVPGDRTTIDLRPGRASYSIGNLKPDTEYEVSLICSTGTGLPSNPAKETFTT
B19: 2G03 (designed binder)
chain: IEVKDVTDTTALITWSPGPLLRHTTGCELTYGIKDVPGDRTTIDLRPIPRAYSIGNLKPDTEYEVSLICRNRPQQSNPAKETFTT
B20: 1E05 (designed binder)
chain: IEVKDVTDTTALITWSPCSPCQLVTGCELTYGIKDVPGDRTTIDLSCTRAKYSIGNLKPDTEYEVSLICINKLGDTSNPAKETFTT
B21: 3B11 (designed binder)
chain: IEVKDVTDTTALITWSPCQLLALITGCELTYGIKDVPGDRTTIDLNSRHYHYSIGNLKPDTEYEVSLICYTSTGQRSNPAKETFTT
B22: 2A12 (designed binder)
chain: IEVKDVTDTTALITWSPCCQEFTLTGCELTYGIKDVPGDRTTIDLHNHHHHYSIGNLKPDTEYEVSLICITDAGNKSNPAKETFTT
B23: 1B04 (designed binder)
chain: IEVKDVTDTTALITWSPSHGVESSTGCELTYGIKDVPGDRTTIDLHGLQRVYSIGNLKPDTEYEVSLICAKICGHLVSKETFTT
B24: 1H05 (designed binder)
chain: IEVKDVTDTTALITWSPGMFDQVRTGCELTYGIKDVPGDRTTIDLGKYWERYSIGNLKPDTEYEVSLICRNQYGQHQSKETFTT
B25: 2A11 (designed binder)
chain: IEVKDVTDTTALITWSPPFRAGHVTGCELTYGIKDVPGDRTTIDLVTARCQYSIGNLKPDTEYEVSLICTTGNGLRSNPAKETFTT
B26: 1G11 (designed binder)
chain: IEVKDVTDTTALITWSWAQANPGGCELTYGIKDVPGDRTTIDLWHSITFYSIGNLKPDTEYEVSLICKTKVQSSNPAKETFTT
B27: 2F02 (designed binder)
chain: IEVKDVTDTTALITWSPSRGGTSLTGCELTYGIKDVPGDRTTIDLDQVRATYSIGNLKPDTEYEVSLICHTNSGQPSNPAKETFTT
B28: 2F08 (designed binder)
chain: IEVKDVTDTTALITWSHAGGIRIGCELTYGIKDVPGDRTTIDLHVWQVYYSIGNLKPDTEYEVSLICMTPYLLGNPAKETFTT

Protein sequences, listed by entry. Tags and fused reporters are not part of them. Residues count along the entry.
UniProt O14763, residues 54-182: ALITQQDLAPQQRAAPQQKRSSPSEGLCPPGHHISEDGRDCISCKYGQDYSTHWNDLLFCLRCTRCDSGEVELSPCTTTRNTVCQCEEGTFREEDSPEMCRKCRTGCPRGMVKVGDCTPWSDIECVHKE

Each binder was assayed against TRAIL-R2/Fc fusion protein (R & D Systems) (human) (UniProt O14763) (assay: competition phage ELISA, TRAIL-R2 coated plate, phage displayed Tn3 with or without soluble 7G11 or 5E5).

binding, binds:
B1, B2, B3, B4, B5, B6, B7, B8

What follows are binders tested against TRAIL-R2/Fc fusion protein (R & D Systems) (human) (UniProt O14763) (assay: biosensor, TRAIL-R2-Fc fusion protein immobilized on the chip).

binding, binds:
B9, B10

Each binder was assayed against TRAIL-R2/Fc fusion protein (R & D Systems) (human) (UniProt O14763) (assay: Attana biosensor, TRAIL-R2 chip, qualitative).

binding, binds:
B9, B10

What follows are binders tested against TRAIL-R2/Fc fusion protein (R & D Systems) (human) (UniProt O14763) (assay: competition phage ELISA, TRAIL-R2 coated plate, phage displayed Tn3 with soluble Tn3 competitors, signal relative to no Tn3 [D00044 Fig. 15B; D00045 Fig. 15C]).

binding, binds:
B11, B12, B13, B10

These binders were tested against TRAIL-R2/Fc fusion protein (R & D Systems) (human) (UniProt O14763) (assay: Attana biosensor, TRAIL-R2-Fc immobilized, sample injected).

binding, binds:
B9, B10

These binders were tested against TRAIL-R2/Fc fusion protein (R & D Systems) (human) (UniProt O14763) (assay: competition phage ELISA, TRAIL-R2 coated plate, phage displayed Tn3 with soluble Tn3 competitors, signal relative to no Tn3).

binding, binds:
B14, B2, B3, B15, B16, B17, B18, B19, B20, B21, B22, B23, B7, B8

The binders below were run against TRAIL-R2/Fc fusion protein (R & D Systems) (human) (UniProt O14763) (assay: TRAIL-R2 phage ELISA).

binding, binds:
B24, B14, B1, B2, B3, B15, B16, B11, B17, B4, B18, B19, B12, B25, B26, B20, B5, B21, B27, B22, B23, B13, B28, B10, B6, B7, B8

These binders were tested against TRAIL-R2/Fc fusion protein (R & D Systems) (human) (UniProt O14763) (assay: competition phage ELISA on TRAIL-R2 coated plates).

binding, binds:
B1, B2, B3, B4, B5, B6, B7, B8

— patent US20140141994A1
